In article PMC5046144 one finds binding data, which are given here for two molecules.

The target of the assay is Channelrhodopsin 1 (Chlamydomonas reinhardtii (endogenous in C. reinhardtii cells)). Description: affinity purification with mass spectrometry; ChR1 immunoprecipitated with anti-ChR1 from pre-cleared C. reinhardtii total cell lysate (IP-lysis buffer: 1X PBS, 1% NP-40, 0.5% sodium deoxycholate, 0.1% SDS), overnight at 4 °C, protein A/G beads; eluate trypsin digested, Nano-LC-MS/MS; hits present in ChR1-IP but not in the pre-immune serum control.

No constants are given. Whether binding was seen depends on the method and setting. In cells and extracts the contact can be indirect. A yes stands for co-enrichment or nearness to the bait. Other partners may have been found.

B1: IFT20 (protein, UniProt Q8LLV9 1-135)
chain: MDAVDRGVYFDEDFHVRILDVDKYNASKSLQDNTNVFINNIQNMQGLVDKYVSAIDQQVERLEAEKLKAIGLRNRVAALSEERKRKQKEQERMLAEKQEELERLQMEEQSLIKVKGEQELMIQKLSDSSSGAAYV
Regarding B1, the binding result is recorded as “binds”.

B2: Kinesin-2 (protein, UniProt A7LGV1 1-768)
chain: MASGGECVKVAVRCRPLNGKEKGDNRATIVEVDNKTGQVTLNNPKGDEPPKTFTFDNAFDWNVTQRDVYDVVARPIVNSVMDGYNGTIFAYGQTGTGKTHTMEGFPTPELQGIIPNCFDHVFETVNSSTGKQWMVRASYLEIYNEEVRDLLSKDPKNKLELKEHKDSGVYVKGLNAFVVKGVPELKNVLEVGKKNRSVGATLMNQDSSRSHSIFTITIETIEQTQAQPEGHIRVGKLNLVDLAGSERQSKTGATGDRLKEATKINLSLSALGNVISALVDGKSGHVPYRDSKLTRLLQDSLGGNTKTIMCANMGPADWNYDETLSTLRYANRAKNIKNKPKINEDPKDAMLREFQDEIARLKAALEAEGGALPEGFATGPGGEIIVEKVVQVPKALDASFLEQMRKDMEEQMKKELASQQAAALNDEQLQKVKEEAAAKAKAEAARLEEEKKKAEEEAARMQRKQQKIKAEMDKKSLDAEQIRAEKEALAKKLKAMESKILKGDQAGGLAEVTKKKEEELKRKEQELERRRKEEEEQRKKIQVMEEQQLAMEDKYKDKADEADQKTKKLKKLWKKFQEVNAEVEDMYKEFQREKEDLLESIRMLQDQMQLKDMVIEAFIPPEEVQKVMKRAHWDDEREVWVLERLSDIGKRETAQGASRRPVSASGQRRPTSDFAKLANAMGDMNPRFKSENILNLELDLPERTTYDYEGPGVDPRVQAAINAAFAEDGELIFVGSEQNVHLGDASAAAARPDSAKKRPASARKGTKK
On to B2, for which the binding entry is on record as “binds”.
